From PMC7759526
No constants are given. Whether binding was seen depends on the method and setting. In cells and extracts the contact can be indirect. Some results given as binding are weak or reduced against the parent protein; the word gives no strength.

Sequences of proteins named here, by UniProt entry; tags and fusion partners are left off.
UniProt Q13950: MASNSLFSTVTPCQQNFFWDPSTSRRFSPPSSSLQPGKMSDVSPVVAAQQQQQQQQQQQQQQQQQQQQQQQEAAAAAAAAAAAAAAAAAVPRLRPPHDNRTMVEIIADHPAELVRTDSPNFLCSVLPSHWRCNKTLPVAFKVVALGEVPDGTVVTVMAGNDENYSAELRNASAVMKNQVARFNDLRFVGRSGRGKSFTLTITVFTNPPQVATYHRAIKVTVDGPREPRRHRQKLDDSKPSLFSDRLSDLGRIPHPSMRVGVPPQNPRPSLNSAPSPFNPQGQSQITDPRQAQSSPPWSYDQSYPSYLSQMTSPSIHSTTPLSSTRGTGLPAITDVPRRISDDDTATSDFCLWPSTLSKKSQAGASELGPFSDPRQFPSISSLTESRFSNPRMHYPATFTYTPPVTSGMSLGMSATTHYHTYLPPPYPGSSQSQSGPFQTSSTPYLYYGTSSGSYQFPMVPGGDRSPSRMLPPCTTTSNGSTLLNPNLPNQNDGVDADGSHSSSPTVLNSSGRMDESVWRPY
UniProt Q9UM07: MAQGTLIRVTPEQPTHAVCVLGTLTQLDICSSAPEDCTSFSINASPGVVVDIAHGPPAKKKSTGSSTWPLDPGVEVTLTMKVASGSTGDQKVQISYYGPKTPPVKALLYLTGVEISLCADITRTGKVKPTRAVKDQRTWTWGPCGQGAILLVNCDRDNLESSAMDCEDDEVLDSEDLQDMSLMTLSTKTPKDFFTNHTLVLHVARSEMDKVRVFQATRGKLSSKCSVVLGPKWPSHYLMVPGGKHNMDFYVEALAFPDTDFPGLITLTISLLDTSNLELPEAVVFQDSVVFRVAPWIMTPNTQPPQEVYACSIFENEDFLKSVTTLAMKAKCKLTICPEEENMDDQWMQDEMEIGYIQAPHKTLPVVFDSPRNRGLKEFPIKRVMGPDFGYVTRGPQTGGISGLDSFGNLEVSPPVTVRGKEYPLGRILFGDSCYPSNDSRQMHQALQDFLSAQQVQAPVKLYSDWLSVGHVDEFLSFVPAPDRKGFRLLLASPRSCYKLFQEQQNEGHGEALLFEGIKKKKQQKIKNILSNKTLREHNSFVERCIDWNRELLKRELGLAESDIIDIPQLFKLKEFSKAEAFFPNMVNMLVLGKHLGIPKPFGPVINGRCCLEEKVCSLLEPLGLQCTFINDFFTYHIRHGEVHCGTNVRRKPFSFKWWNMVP

Tests used:
[1] = target: RUNX2 (endogenous, hFOB 1.19) (human (endogenous in hFOB 1.19)) (UniProt Q13950); experiment: co-IP; endogenous proteins; whole-cell extracts of hFOB 1.19 cells induced for 3 days; precipitated with anti-RUNX2 antibody (normal mouse IgG as control) and protein-G agarose at 4°C, blotted with anti-PADI4 or anti-RUNX2
FLAG-RUNX2 (human) = FLAG-RUNX2 (human) (UniProt Q13950); experiment: co-IP; HEK293T cells co-transfected with HA-PADI4 and FLAG-RUNX2; IP lysis buffer; precipitated with anti-FLAG antibody (normal mouse IgG as control) and protein-G agarose at 4°C, blotted with anti-HA or anti-FLAG

binding [1] | binding (FLAG-RUNX2 (human)) | Substance
binds | – | PADI4 (endogenous, hFOB 1.19) (from UniProt Q9UM07 1-663) (enzyme)
– | binds | HA-PADI4 (peptidyl arginine deiminase 4) (from UniProt Q9UM07 1-663) (enzyme)
